14 compounds from the supplement of paper PMC4604168 (melanoma cell lines) can be followed below.

The other results are listed elsewhere or left out. Many values rest on one well or one pass, so single values are uncertain.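 Cells were imaged in 1,536-well plates, and nuclei stained with an antibody against cleaved PARP were counted against all DNA-stained nuclei to give the apoptosis fraction. Screening doses were chosen to leave most cells alive, and resting and induced cleaved-PARP levels differ strongly between cell lines.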

The test relates to SkMel30. Description: cleaved PARP positive nuclei fraction relative to DMSO control; melanoma cells; higher = more apoptosis. To be noted: library dose: low library concentration; 72 h.
Take `Cn1sc(=O)n(Cc2ccccc2)c1=O` + Cc1cc([N+](=O)[O-])ccc1NS(=O)(=O)c1cc(Cl)ccc1Cl [FH535] (first compound 0.4 µM, partner dose 1 µM): the “cleaved PARP positive nuclei fraction” value amounted to 47.1%.
The result for `CN(c1ncccc1CNc1nc(Nc2ccc3c(c2)CC(=O)N3)ncc1C(F)(F)F)S(C)(=O)=O` + Nc1cccc2c1CN(C1CCC(=O)NC1=O)C2=O [lenalidomide] (first compound 0.08 µM, partner dose 1 µM) reads 47.5%; that for `NC(=O)c1ccc(N(C(N)=O)c2c(F)cccc2F)nc1-c1ccc(F)cc1F` + C[C@]1(c2nc3c(C(N)=O)cccc3[nH]2)CCCN1 [Veliparib] (first compound 0.4 µM, partner dose 1.4 µM), 43.7%; that for `CCCCCCCCc1ccc(CCC(N)(CO)CO)cc1` [fingolimod] + O=C(O)c1ccc2c(c1)nc(Nc1cccc(Cl)c1)c1ccncc12 [CX4945] (first compound 2 µM, partner dose 0.4 µM), 92.2%.
The value for `C[C@@H](N)c1ccc(C(=O)Nc2ccnc3[nH]ccc23)cc1` + Cc1cc(N2CCOCC2)cc2[nH]c(-c3c(NC[C@@H](O)c4cccc(Cl)c4)cc[nH]c3=O)nc12 [BMS536924] (first compound 0.4 µM, partner dose 0.2 µM) was 62.6%; that for `CCCCCCCCc1ccc(CCC(N)(CO)CO)cc1` [fingolimod] + C=CCn1c(=O)c2cnc(Nc3ccc(N4CCN(C)CC4)cc3)nc2n1-c1cccc(C(C)(C)O)n1 [MK1775] (first compound 2 µM, partner dose 0.02 µM) was 45.9%; that for `CN(c1ncccc1CNc1nc(Nc2ccc3c(c2)CC(=O)N3)ncc1C(F)(F)F)S(C)(=O)=O` + Nc1nc(F)nc2c1ncn2[C@@H]1O[C@H](CO)[C@@H](O)[C@@H]1O [fludarabine] (first compound 0.08 µM, partner dose 0.2 µM) was 525%.
The value for `C[C@@H](N)c1ccc(C(=O)Nc2ccnc3[nH]ccc23)cc1` + CS(=O)(=O)CCNCc1ccc(-c2ccc3ncnc(Nc4ccc(OCc5cccc(F)c5)c(Cl)c4)c3c2)o1 [lapatinib] (first compound 0.4 µM, partner dose 0.8 µM) was 86.3%; that for `NC(=O)c1ccc(N(C(N)=O)c2c(F)cccc2F)nc1-c1ccc(F)cc1F` + CS(=O)(=O)CCNCc1ccc(-c2ccc3ncnc(Nc4ccc(OCc5cccc(F)c5)c(Cl)c4)c3c2)o1 [lapatinib] (first compound 0.4 µM, partner dose 0.8 µM) was 185%; that for `CS(=O)(=O)c1ccc(C(=O)Nc2ccc(Cl)c(-c3ccccn3)c2)c(Cl)c1` [vismodegib] + O=C(O)c1ccc2c(c1)nc(Nc1cccc(Cl)c1)c1ccncc12 [CX4945] (first compound 1 µM, partner dose 0.4 µM) was 50.6%.
Regarding `CC(=O)O[C@@]12CO[C@@H]1C[C@H](O)[C@@]1(C)C(=O)[C@H](O)C3=C(C)[C@@H](OC(=O)[C@H](O)[C@@H](NC(=O)OC(C)(C)C)c4ccccc4)C[C@@](O)([C@@H](OC(=O)c4ccccc4)[C@H]21)C3(C)C` [Docetaxel] + CCc1ccc(CCOc2ccc(CC3SC(=O)NC3=O)cc2)nc1 [pioglitazone] (first compound 0.0001 µM, partner dose 2 µM), the “cleaved PARP positive nuclei fraction” value was determined as 213%.
In the case of `Cn1cnc2c(F)c(Nc3ccc(Br)cc3Cl)c(C(=O)NOCCO)cc21` [selumetinib] + Cn1c(Nc2ccc(C(F)(F)F)cc2)nc2cc(Oc3ccnc(-c4ncc(C(F)(F)F)[nH]4)c3)ccc21 [CHIR265] (first compound 0.015 µM, partner dose 0.08 µM), the “cleaved PARP positive nuclei fraction” value worked out at 182%.
The value for `NC1(c2ccc(-c3nc4ccn5c(=O)[nH]nc5c4cc3-c3ccccc3)cc2)CCC1` + c1cc(-c2cnn3cc(-c4ccc(OCCN5CCCCC5)cc4)cnc23)ccn1 [Dorsomorphin] (first compound 0.4 µM, partner dose 0.4 µM) was 44.5%; that for `CC(=O)O[C@@]12CO[C@@H]1C[C@H](O)[C@@]1(C)C(=O)[C@H](O)C3=C(C)[C@@H](OC(=O)[C@H](O)[C@@H](NC(=O)OC(C)(C)C)c4ccccc4)C[C@@](O)([C@@H](OC(=O)c4ccccc4)[C@H]21)C3(C)C` [Docetaxel] + CC(=O)c1c(C)c2cnc(Nc3ccc(N4CCNCC4)cn3)nc2n(C2CCCC2)c1=O [palbociclib] (first compound 0.0001 µM, partner dose 0.04 µM) was 211%.
